This is an account of results in PubChem BioAssay AID1508600 (Functional Genomics Laboratory (NCATS/FGL), 2020).

About 3,700 (7%) of roughly 53,000 sequences were called active.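 The calls were made as follows: active = gene knockdowns whose robust z-score for IL-1 alpha signal is at least 2 or at most -2, so actives lie on both sides; inactive = the rest.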 This is one part of the list.

This test is described as follows: Components of the Cytosolic LPS Sensing Pathway: Gene Identification via Genome-wide siRNA Screen.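 Also: robust z of the log signal after scaling to non-targeting control siRNA wells of the plate.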 To be noted: RAW264.7 macrophages, IL-1a HTRF, actives lie on both sides, screened at 100 nM (by protocol), cells primed 5 h with Pam3CSK4 first. The method, boiled down: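 Read-out: IL-1a HTRF on supernatant, divided by plate negative-control median ×100, log-transformed and converted to robust z-score. Cells were RAW264.7 given 100 nM siRNA, Pam3CSK4-primed 5 hours, then LipidA-transfected 24 hour.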
On to GGACAAAAAUGGCAAUACUTT against A26c3, for which the z-score is inactive: 0.509.

As to CGGGCUCAGGUAAAACUCUTT against Ddx31, the z-score is inactive: -0.217.

Regarding GGUUCUGAACAAAAAACUCTT against Pola2, the z-score was inactive: 0.167.

Turning to GGGUUCUGCUAUGUUAAUGTT against Hdac2, the z-score was inactive: 0.221.

Regarding CCUACAGGAUCAUAGUUAATT against Nicn1, the z-score is inactive: -1.04.

For the sequence GGCCAAAUUUGGGUUUGGATT against Dpy19l3, the z-score is inactive: -0.367.

Regarding GGAGAUAUUCCAGAUCUUUTT against Picalm, the z-score was inactive: 0.305.

On to GGAUUUGAUGCUAAAUGAATT against Pcdhb13, for which the z-score is inactive: -0.635.

In the case of CCACUGAUGCUUCCUACUUTT against Flvcr2, the z-score was inactive: -0.895.

For GGACUCUUGGAACUAUUCUTT against Kcnu1, the z-score was inactive: -0.833.

Consider GGAAAGAAACAGAAGCACATT against Il21, for which the z-score is inactive: -0.511.

On to CCGAGUACCAAGAUUCUGATT against Doxl1, for which the z-score was inactive: 0.295.

Turning to CGGAGCUGUCUGAUUGUCGTT against Lrrc8b, the z-score was inactive: -1.61.

In the case of GAGUGAUGCGCAUUUCGAGTT against Sf3b5, the z-score is active: -2.53.

Turning to CGAUGUGGAAAGUCGGUAUTT against Csrp3, the z-score is inactive: 0.386.

In the case of GGGACCAUUCUGAAGAUGATT against Acot7, the z-score is inactive: -1.76.

Consider GGAAGAGGAGACCACUGAUTT against Zfp428, for which the z-score was inactive: -0.446.

GGAUUCAUGAAAUAAGUCATT against Zfp426: the z-score was inactive: -0.603.

Regarding GGUUAUUAAGGAUAAACUGTT against Cops5, the z-score was active: 2.28.

With CGGUGAUCAAAGAUAAGAATT against Zkscan5, the z-score was inactive: -0.936.

GGUUAUUCAUGAUGUUUGCTT against Fbn1: the z-score was inactive: -0.529.

Consider GCCAUUUUGUCAAUUCACCTT against Txndc12, for which the z-score was inactive: -1.24.

For the sequence GGUACCUGACAAUGAUGAGTT against Etv1, the z-score was inactive: -1.31.

For the sequence GGCUGAAGUUACUUUGGAUTT against Nup98, the z-score is active: -2.03.

As for GGUGCUAUCUGAGAGGUACTT against Triobp, the z-score was inactive: -0.201.

As to GGGAAAGAUAAAUGUUUCCTT against Gucy1b1, the z-score is inactive: 1.89.

For GCCAACGAACUUUUUCGUATT against Zfp36l2, the z-score was inactive: 0.208.

With CGCACAUGCCACUUCCACATT against Oxsm, the z-score was inactive: 0.189.

Take GGGUAUAUCAGGGCCAAGUTT against Col4a5: the z-score is inactive: 0.51.

Regarding GGUUCCUCACAAGCAUUCUTT against Olfr818, the z-score was inactive: 0.276.

With GGAAGUCCUAUGAUUAAACTT against Zfand1, the z-score is inactive: -0.633.

In the case of GGCACUGAAACUGCUCCUGTT against Taar5, the z-score is inactive: -1.4.

For the sequence CCUCAACCGGCAGUUCUUGTT against Uba2, the z-score is inactive: -0.574.

Turning to GGUUACCCAACUUGAAGGATT against Parp16, the z-score was inactive: 1.37.

Take GGAGAGAGGAUAAGUCACATT against Jsrp1: the z-score was inactive: -1.44.

Turning to GGAGUGGUUUGAGGACAGCTT against Ppfibp2, the z-score is inactive: 0.423.

Turning to GCUAUUGCUCGCAUCAAUGTT against Prps1l1, the z-score is inactive: 0.989.

Turning to GGUAUUUGUCUGUAAUUUGTT against Ddx50, the z-score was inactive: 0.421.

With GGCUAGCAUUAGCCACAGATT against Enpp3, the z-score is active: -2.33.

For GGGCAGCUUUGAGAAAGCCTT against Rrad, the z-score was inactive: -1.38.

As for GGAGGACAAACAGCUUCAATT against Psmd2, the z-score was inactive: -1.43.

Take GCCCACCAAUAUUUUGCUUTT against Stk16: the z-score is inactive: -0.383.

With GGAACAACUGAGAAGCACCTT against H2bc4, the z-score was inactive: 1.02.

Turning to GGAAUUACUCACAUGCUAATT against Tlr7, the z-score is inactive: 0.98.

As for CCUGUCUGUUUGAGGACGUTT against Adora2a, the z-score was inactive: -0.701.

GGAUUCAAGAAGUAAAUCCTT against Uty: the z-score is inactive: -0.901.

GGACUAGACUGUGAAAUGATT against Satb2: the z-score was inactive: -0.443.

Turning to GCUUUACUGAGAUUGAGCGTT against Arfgap2, the z-score is inactive: -1.98.

As to GGAUUAUGCCCUUCAUUGGTT against Rbbp7, the z-score is inactive: -0.572.

Regarding GGACGAUGGAAUUAUGAGGTT against Ift80, the z-score was inactive: 0.368.

On to GGGCAGGACUUUACCUUUATT against Iqcg, for which the z-score was inactive: 1.57.

On to GGAGAUGGCCACCUAUUUGTT against Csnk1g2, for which the z-score was inactive: -0.325.

Regarding GCCAACUCAAGCAAUCUGCTT against Tnks, the z-score is inactive: 0.378.

As for GCCUUCUUACCUGUUAGACTT against Bud23, the z-score was inactive: -0.163.

With GUGCUCAGUUCCAAUUCCATT against Neurog3, the z-score is inactive: -0.282.

With GGCCUAUCUUCUUUACAUATT against Ctbs, the z-score was inactive: 0.348.

With GCAUCCUUCACUCAAAUAUTT against Aspa, the z-score was active: 3.17.

GGAGUAGCCACUGAGGACUTT against Rif1: the z-score is inactive: -0.341.

Regarding “GGCCUAAUUUGAAUAACACTT against 4933436I01Rik”, the z-score was inactive: -1.45.

As for GCCAUCGCCAGGGAACAAATT against Trim12c, the z-score was inactive: -0.721.

GGCUCUGAAAGAGCUAAAATT against Lrrc57: the z-score is inactive: 1.66.

Take GGAGGAAAUGAAAACCUUUTT against Cep89: the z-score is inactive: -0.823.

Consider GGCUGUAAUGAGGACUGAUTT against Ss18l2, for which the z-score was active: 3.25.

With GGGUCAGAACACGUACGAGTT against Gnaz, the z-score was inactive: 1.06.

Turning to GGCAAAACUCACACUUACUTT against Poldip2, the z-score is inactive: -0.0142.

With CGCCGUUGGUUUGCCAGAATT against Defb40, the z-score was inactive: 0.454.

Regarding GGGACUGGCACCAUUUGUUTT against Cetn4, the z-score is inactive: -0.289.

Turning to GGUUAAUGAUAAGAACCCATT against Hgs, the z-score is inactive: 0.156.

As for GCCCAACCUGUAUUGGAUCTT against Icosl, the z-score was inactive: -0.887.

On to CCUACGACAACUCAGACCUTT against Ecscr, for which the z-score is inactive: -0.152.

Take GCAAACCUCAAUCUUGAAATT against Kif15: the z-score is inactive: 0.297.

Take GCAGAAAGAAUGACAUUCCTT against Cfc1: the z-score is inactive: 0.71.

As for GCCUACAGAGUCUUAGUUATT against Tmed9, the z-score was inactive: 0.53.

As for GCUGCUGUGGCUUUUGUGGTT against Imp3, the z-score is inactive: -1.76.

Regarding “GGAGAGAACUUGUUCAUGATT against 4833432P19Rik”, the z-score was inactive: -0.697.

Turning to GCCAGUGGUGCUAGCAGAUTT against Mtnr1a, the z-score is inactive: -0.129.

For the sequence GGAUACCUUCCUCUUACACTT against Bloc1s3, the z-score is inactive: 1.35.

For GCUUUUCCUACCGUAAGCCTT against Cmtr2, the z-score is inactive: -0.171.

For GCAUACUUUCCACAAUGAUTT against Vmn1r50, the z-score was inactive: 1.11.

With GAACUGACUUCACAUAAAGTT against Nrtn, the z-score was inactive: -0.616.

For GCCAUGAAGCUAAAUAAUCTT against Optn, the z-score was inactive: -1.31.

On to GGGUGUAUUACCUCUCUCUTT against Pygl, for which the z-score is active: 2.12.

Turning to GGAACUUAUGGACAGUUCATT against Lrtm1, the z-score is inactive: 0.642.

Turning to GGAGAAAAGGAAGUUGAGGTT against Bnip3l, the z-score was inactive: -1.76.

With CCAAAGUAUGCACUUUACATT against Dcaf10, the z-score was inactive: 0.668.

On to CGACCAGACACGGAAUGUATT against Mbnl1, for which the z-score was inactive: 0.481.

As for GGGCAUGAAUGGUUACUUATT against Mllt6, the z-score was inactive: 1.24.

For the sequence GCCUAUGGAAUGGACAUACTT against Nadsyn1, the z-score is inactive: 1.21.

On to GGGAGACAUUUUCAAGAUGTT against Lrrn4, for which the z-score is inactive: -1.75.

For the sequence GGAUUUUUAUGAUAGUGACTT against Slc4a1ap, the z-score is inactive: -0.747.

Consider GGUUUAACUGUAGCAUAAGTT against Pde12, for which the z-score is inactive: -0.0106.

Regarding GGGAACUACGCACAACGAATT against H2ac1, the z-score is inactive: 0.776.

With CCAAAAAUGAAAUCACUGATT against Krt71, the z-score is inactive: -1.93.

With GGAUAUGUGAAAUGCAUUGTT against Asb9, the z-score was inactive: 0.219.

Turning to GCUAAAACCCGUUACUUCCTT against Gsta4, the z-score was inactive: 0.669.

As for CCUAUCUGGCUUCUGUUAATT against Bin1, the z-score is inactive: -0.438.

As to GGUAAAAGAAGCUCUAAAGTT against Olfr449, the z-score is inactive: 0.0924.

Turning to GCCAUGUGUAUGGUAGUCUTT against Olfr1247, the z-score is inactive: -1.22.

With GGUCUUCUGGAGUUUGUGGTT against Glrx, the z-score was inactive: 1.02.

For the sequence GCAGUUAUCAAUAAUUCCCTT against Nploc4, the z-score was inactive: -0.533.

For the sequence GCAACUAUCUCCUAUAAGGTT against Acss3, the z-score was inactive: -0.844.

With GGUUGAUGCAUCAUUCCUATT against Adamts1, the z-score was inactive: -0.11.

Take GGCUACCAAGUUUCAUCAUTT against Tbx22: the z-score is inactive: 1.37.

For GGUUUUAGCCACAAGUAUGTT against Utp18, the z-score is inactive: 0.67.

In the case of CCAUCUCCCUACUAGGUUGTT against Olfr49, the z-score is inactive: 0.635.

For GCUAGCCAGUGCAUUCACATT against Srp68, the z-score was active: -2.96.

Turning to GGCCAAUGCCCUUUUUUGATT against Spem2, the z-score is inactive: 0.427.
